These are yes or no findings as the source states them, for the method shown. Binding calls can cover weak binding; strength is not graded here.
What was measured:
Experiment in all cases: ELISA; solid-phase binding assay: catalytic domain or full-length proteins of MMP-9/MMP-2 coated at 8 ug/mL on 96-well plates; biotinylated R1R2 (20 ug/mL) added; bound peptide detected with anti-biotin antibodies, absorbance at 405 nm; both purified
[1] = target: catalytic domain of MMP-2 (not stated (human and mouse proteins bought))
[2] = target: catalytic domain of MMP-9 (not stated (human and mouse proteins bought))
[3] = target: full-length protein of MMP-2 (not stated (human and mouse proteins bought)) (UniProt P08253)

By UniProt entry, the sequences of proteins in these tests, tags left out. Where a name states a change or a piece, a line headed by the entry shows the natural chain unless it says otherwise.
UniProt P08253: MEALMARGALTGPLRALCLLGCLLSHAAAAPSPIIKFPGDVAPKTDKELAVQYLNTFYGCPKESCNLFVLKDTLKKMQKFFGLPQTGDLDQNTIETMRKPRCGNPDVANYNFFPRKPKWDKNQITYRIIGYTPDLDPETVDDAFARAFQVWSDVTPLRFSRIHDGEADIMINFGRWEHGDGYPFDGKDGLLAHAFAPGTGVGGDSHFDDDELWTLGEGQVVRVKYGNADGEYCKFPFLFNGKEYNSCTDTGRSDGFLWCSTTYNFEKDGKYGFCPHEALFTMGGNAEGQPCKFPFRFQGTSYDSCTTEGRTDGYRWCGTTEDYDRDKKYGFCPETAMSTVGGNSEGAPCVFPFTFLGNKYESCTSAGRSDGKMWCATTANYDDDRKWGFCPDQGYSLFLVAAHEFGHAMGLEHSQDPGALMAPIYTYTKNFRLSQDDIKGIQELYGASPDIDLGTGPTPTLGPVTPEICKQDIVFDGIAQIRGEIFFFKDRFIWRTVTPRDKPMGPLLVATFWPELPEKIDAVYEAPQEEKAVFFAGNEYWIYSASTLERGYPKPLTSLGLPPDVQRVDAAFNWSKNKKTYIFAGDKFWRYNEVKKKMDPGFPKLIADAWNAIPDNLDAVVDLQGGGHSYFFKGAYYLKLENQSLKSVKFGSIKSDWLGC

Measured: binding

B1: biotinylated R1R2 (peptide)
peptide: GLNGENQKEPEQGERGEAGPPLSGLSGNNQGRPSLPGLNGENQKEPEQGERGEAGPP
modifications: biotin (position not given)
binds: [1] | [2] | [3]
